Measurements from patent US20200345862A1, “TRANSITION METAL-BASED FUNCTIONAL MOIETIES FOR PREPARING CELL TARGETING CONJUGATES” (priority 2017, published 2020).

System: Trastuzumab (Herceptin®)
Assay: Conjugation efficiency of halido semi-final products (SFMs) to trastuzumab, SEC at 430 nm
Conditions: 47° C.
[1] = 10 mM NaI in conjugation mixture, 5.0 eq. SFM, pH 8.1, 24 h conjugation time, FIG. 2
[2] = no NaI in conjugation mixture, 5.0 eq. SFM, pH 8.1, 24 h conjugation time, FIG. 1

[(Fe)DFO-pip-PtBr(ethane-1,2-diamine)]^+ TFA^− [5d]
conjugation efficiency [1]: 79% | conjugation efficiency (corresponding halide salt: 50 mM NaBr, pH 8.1, 24 h, FIG. 3): 74% | conjugation efficiency [2]: 42%

[Pt((Fe)DFO-suc-pip)(ethane-1,2-diamine)I]^+ TFA^− [6k]
conjugation efficiency [1]: 80% | conjugation efficiency (corresponding halide salt: 10 mM NaI, pH 8.1, 24 h, FIG. 3): 90% | conjugation efficiency [2]: 58%

[PtCl((Fe)DFO-pip)(ethane-1,2-diamine)]^+ TFA^− [4a]
conjugation efficiency [1]: 79% | conjugation efficiency (corresponding halide salt: 200 mM NaCl, pH 8.1, 24 h, FIG. 3): 34% | conjugation efficiency [2]: 39%
